Where a chain is given by its changes, count along the chain named. Results are given in words; binding and its absence hold for the method and conditions named. Some results given as binding are weak or reduced against the parent protein; the word gives no strength.
B1: PG102_Var5 (antibody, human IgG4 S228P, kappa, V domains shown)
VH: QVQLQESGPGLVKPSETLSITCTVSGFSLSRYSVYWIRQPPGKGPEWMGMMWGGGSTDYSTSLKSRLTISKDTSKSQVSLKMSSLTAADTAVYYCVRTDGDYWGQGTLVTVSS
VL: ELQLTQSPLSLPVTLGQPASISCRSSQSLASSQGNTYLHWYLQRPGQSPRLLIYKVSNRFSGVPDRFSGSGSGTDFTLKISRVEAEDVGVYYCSQSTHVPWTFGGGTKLEIKR
notes: IgG4pro(deltaK)/kappa; also called FFP104_Var5
B2: PG102_Var1 (antibody, human IgG4 S228P, kappa, V domains shown)
VH: B1 VH
VL: B1 VL with Q33S
notes: IgG4pro(deltaK)/kappa; also called FFP104_Var1
B3: PG102_Var2 (antibody, human IgG4 S228P, kappa, V domains shown)
VH: B1 VH with I37V, P45L
VL: B1 VL with Q33S
notes: IgG4pro(deltaK)/kappa; also called FFP104_Var2
B4: PG102_Var6 (antibody, human IgG4 S228P, kappa, V domains shown)
VH: B1 VH with I37V, P45L
VL: B1 VL
notes: IgG4pro(deltaK)/kappa; also called FFP104_Var6
B5: PG102_Var13 (antibody, human IgG4 S228P, kappa, V domains shown)
VH: B1 VH
VL: B1 VL with E1D, L2I, Q3V, L4M, L15P, R44K
notes: IgG4pro(deltaK)/kappa; also called FFP104_Var13
B6: PG102_Var14 (antibody, human IgG4 S228P, kappa, V domains shown)
VH: B1 VH with I37V, P45L
VL: B1 VL with E1D, L2I, Q3V, L4M, L15P, R44K
notes: IgG4pro(deltaK)/kappa; also called FFP104_Var14
B7: PG102_Var7 (antibody, human IgG4 S228P, kappa, V domains shown)
VH: B1 VH with E16Q, I20L, I37V, P45L, M48I, S60N, T61P, M82L
VL: B1 VL
notes: IgG4pro(deltaK)/kappa; also called FFP104_Var7
B8: PG102_Var3 (antibody, human IgG4 S228P, kappa, V domains shown)
VH: B1 VH with E16Q, I20L, I37V, P45L, M48I, S60N, T61P, M82L
VL: B1 VL with Q33S
notes: IgG4pro(deltaK)/kappa; also called FFP104_Var3
B9: PG102_Var15 (antibody, human IgG4 S228P, kappa, V domains shown)
VH: B1 VH with E16Q, I20L, I37V, P45L, M48I, S60N, T61P, M82L
VL: B1 VL with E1D, L2I, Q3V, L4M, L15P, R44K
notes: IgG4pro(deltaK)/kappa; also called FFP104_Var15
B10: PG102_Var8 (antibody, human IgG4 S228P, kappa, V domains shown)
VH: QVQLVESGGGLVKPGGSLRLSCAVSGFSLSRYSVYWIRQAPGKGLEWMGMMWGGGSTDYSTSVKGRFTISKDNAKTSVYLQMSSLRAEDTAVYYCVRTDGDYWGQGTLVTVSS
VL: B1 VL
notes: IgG4pro(deltaK)/kappa; also called FFP104_Var8
B11: PG102_Var4 (antibody, human IgG4 S228P, kappa, V domains shown)
VH: B10 VH
VL: B1 VL with Q33S
notes: IgG4pro(deltaK)/kappa; also called FFP104_Var4
B12: PG102_Var16 (antibody, human IgG4 S228P, kappa, V domains shown)
VH: B10 VH
VL: B1 VL with E1D, L2I, Q3V, L4M, L15P, R44K
notes: IgG4pro(deltaK)/kappa; also called FFP104_Var16

Protein sequences, listed by entry. Tags and fused reporters are not part of them. Residues count along the entry.
UniProt P25942, residues 21-193: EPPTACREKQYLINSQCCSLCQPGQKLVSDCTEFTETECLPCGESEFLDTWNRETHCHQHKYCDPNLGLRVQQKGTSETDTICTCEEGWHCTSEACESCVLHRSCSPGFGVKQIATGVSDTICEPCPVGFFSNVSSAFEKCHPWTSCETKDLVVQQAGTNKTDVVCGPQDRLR

Assays:
[1] = target: T1, recombinant CD40 (human, UniProt P25942 21-193, limits assumed); assay: CD40 ELISA
T1 construct: the ELISA method itself names no species or construct; also called antigen CD40

[2] = target: T1, recombinant CD40; assay: CD40 ELISA (Table 2)
[3] = target: T1, recombinant CD40; assay: CD40 ELISA, relative binding value

| binding [1] | binding [2] | binding [3] | Binder |
| --- | --- | --- | --- |
| binds | binds | binds | B1 |
| binds | binds | binds | B2 |
| binds | binds | binds | B3 |
| binds | binds | binds | B4 |
| – | binds | binds | B5 |
| – | binds | binds | B6 |
| – | binds | binds | B7 |
| – | binds | binds | B8 |
| – | binds | binds | B9 |
| – | binds | binds | B10 |
| – | binds | binds | B11 |
| – | binds | binds | B12 |
